Test results taken from the supplement of paper PMC6411743.
± gives the standard deviation of the averaged measurements. This is a selection; strong and weak results do not stand in their true shares.

How the values were obtained:
Assay in all cases: NP40-soluble protein abundance relative to vehicle (solubility fold change) (ratio); higher = more soluble protein in presence of AMP-PNP
[1] = target: T1, NOC4L (UniProt Q9BVI4)
T1 sequence (whole entry): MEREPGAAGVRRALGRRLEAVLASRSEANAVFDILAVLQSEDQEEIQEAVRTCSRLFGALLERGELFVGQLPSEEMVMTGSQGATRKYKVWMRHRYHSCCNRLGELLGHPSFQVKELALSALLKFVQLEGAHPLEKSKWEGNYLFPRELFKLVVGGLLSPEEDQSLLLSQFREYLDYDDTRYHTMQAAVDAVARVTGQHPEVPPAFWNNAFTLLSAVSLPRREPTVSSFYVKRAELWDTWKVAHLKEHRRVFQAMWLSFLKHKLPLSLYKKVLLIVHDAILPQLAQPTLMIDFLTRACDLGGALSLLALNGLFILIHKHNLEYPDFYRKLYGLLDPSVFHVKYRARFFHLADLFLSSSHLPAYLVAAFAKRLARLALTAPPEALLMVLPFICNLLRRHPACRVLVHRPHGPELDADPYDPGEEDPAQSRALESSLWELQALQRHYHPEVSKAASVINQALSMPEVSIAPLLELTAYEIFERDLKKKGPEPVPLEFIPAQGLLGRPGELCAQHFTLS
Summary of the method: (§1)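 Data come from three independent experiments in which Dounce-homogenised Jurkat crude lysate was treated at eight concentrations from 0.1 to 10 mM. Treatment ran 10 min at room temperature and then 3 min at 37 °C, after which 0.8% NP40 and benzonase were added for 60 min at 4 °C before ultracentrifugation. The supernatant underwent TMT labelling and LC-MS/MS, and vsn-normalised intensities were expressed as fold change against the detergent-processed vehicle in each replicate.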

[2] = target: T2, NUF2 (UniProt Q9BZD4)
T2 sequence (whole entry): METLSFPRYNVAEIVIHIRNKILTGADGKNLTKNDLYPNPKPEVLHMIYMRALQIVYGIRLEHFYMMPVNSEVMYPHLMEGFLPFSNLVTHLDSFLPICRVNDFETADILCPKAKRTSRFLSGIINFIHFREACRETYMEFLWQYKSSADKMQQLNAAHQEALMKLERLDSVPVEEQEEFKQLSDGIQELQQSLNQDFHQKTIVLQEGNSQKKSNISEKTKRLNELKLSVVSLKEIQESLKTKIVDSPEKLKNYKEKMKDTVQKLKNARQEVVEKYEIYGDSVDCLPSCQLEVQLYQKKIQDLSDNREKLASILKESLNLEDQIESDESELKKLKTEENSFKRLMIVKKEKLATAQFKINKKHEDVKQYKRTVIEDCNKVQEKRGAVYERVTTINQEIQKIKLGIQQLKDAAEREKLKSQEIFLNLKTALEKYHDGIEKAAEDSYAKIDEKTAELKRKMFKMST
Summary of the method: as §1

[3] = target: T3, STRBP (UniProt Q96SI9)
T3 sequence (whole entry): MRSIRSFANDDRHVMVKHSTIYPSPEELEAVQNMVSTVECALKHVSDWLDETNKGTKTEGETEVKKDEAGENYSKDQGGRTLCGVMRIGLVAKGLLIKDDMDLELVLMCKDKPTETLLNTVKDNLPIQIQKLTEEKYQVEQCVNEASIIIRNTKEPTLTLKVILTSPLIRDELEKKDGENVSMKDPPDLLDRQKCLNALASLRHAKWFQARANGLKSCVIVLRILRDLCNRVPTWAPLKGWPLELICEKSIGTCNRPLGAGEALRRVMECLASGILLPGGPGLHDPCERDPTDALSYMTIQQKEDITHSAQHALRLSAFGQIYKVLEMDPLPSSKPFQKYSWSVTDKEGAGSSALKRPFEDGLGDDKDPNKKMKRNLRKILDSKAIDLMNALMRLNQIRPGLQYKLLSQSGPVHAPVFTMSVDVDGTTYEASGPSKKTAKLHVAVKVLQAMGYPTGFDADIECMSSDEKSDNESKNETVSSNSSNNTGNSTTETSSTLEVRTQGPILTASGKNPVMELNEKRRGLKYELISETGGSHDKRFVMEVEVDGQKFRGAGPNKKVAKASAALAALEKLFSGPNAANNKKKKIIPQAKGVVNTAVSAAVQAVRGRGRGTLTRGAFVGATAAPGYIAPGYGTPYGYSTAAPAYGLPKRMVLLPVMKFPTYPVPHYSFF
Summary of the method: as §1

[4] = target: T4, TMEM43 (UniProt Q9BTV4)
T4 sequence (whole entry): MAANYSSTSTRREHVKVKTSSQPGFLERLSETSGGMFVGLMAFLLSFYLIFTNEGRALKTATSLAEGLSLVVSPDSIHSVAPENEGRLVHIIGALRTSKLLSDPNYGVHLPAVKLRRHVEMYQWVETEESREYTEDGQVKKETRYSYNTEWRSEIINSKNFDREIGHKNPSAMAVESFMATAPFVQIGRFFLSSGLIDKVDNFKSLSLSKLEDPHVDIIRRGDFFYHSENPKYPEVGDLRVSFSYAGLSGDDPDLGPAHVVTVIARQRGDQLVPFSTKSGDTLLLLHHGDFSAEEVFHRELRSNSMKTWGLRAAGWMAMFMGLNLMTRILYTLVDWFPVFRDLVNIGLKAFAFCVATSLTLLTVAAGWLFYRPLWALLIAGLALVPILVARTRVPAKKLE
Summary of the method: as §1

[5] = target: T5, TP53RK (UniProt Q96S44)
T5 sequence (whole entry): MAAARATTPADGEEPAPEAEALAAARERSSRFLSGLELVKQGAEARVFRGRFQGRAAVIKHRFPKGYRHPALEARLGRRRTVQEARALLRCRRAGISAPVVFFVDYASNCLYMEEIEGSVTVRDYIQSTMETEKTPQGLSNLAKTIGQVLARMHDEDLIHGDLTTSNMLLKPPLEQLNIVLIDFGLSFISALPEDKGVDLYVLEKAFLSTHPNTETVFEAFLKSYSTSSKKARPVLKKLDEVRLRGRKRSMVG
Summary of the method: as §1

[6] = target: T6, TTC1 (UniProt Q99614)
T6 sequence (whole entry): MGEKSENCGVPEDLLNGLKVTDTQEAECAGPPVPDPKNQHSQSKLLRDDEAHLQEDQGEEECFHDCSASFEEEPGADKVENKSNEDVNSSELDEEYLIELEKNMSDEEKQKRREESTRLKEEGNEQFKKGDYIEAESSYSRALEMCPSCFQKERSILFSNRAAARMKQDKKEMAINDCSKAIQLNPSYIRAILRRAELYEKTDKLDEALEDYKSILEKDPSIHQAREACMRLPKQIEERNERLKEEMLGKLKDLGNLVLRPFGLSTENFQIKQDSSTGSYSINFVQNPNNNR
Summary of the method: as §1

[7] = target: T7, TXNDC17 (UniProt Q9BRA2)
T7 sequence (whole entry): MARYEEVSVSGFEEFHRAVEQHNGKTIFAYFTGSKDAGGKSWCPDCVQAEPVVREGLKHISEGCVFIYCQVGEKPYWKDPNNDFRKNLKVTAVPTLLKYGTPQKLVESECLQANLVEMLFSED
Summary of the method: as §1

[8] = target: T8, UTP14A (UniProt Q9BVJ6)
T8 sequence (whole entry): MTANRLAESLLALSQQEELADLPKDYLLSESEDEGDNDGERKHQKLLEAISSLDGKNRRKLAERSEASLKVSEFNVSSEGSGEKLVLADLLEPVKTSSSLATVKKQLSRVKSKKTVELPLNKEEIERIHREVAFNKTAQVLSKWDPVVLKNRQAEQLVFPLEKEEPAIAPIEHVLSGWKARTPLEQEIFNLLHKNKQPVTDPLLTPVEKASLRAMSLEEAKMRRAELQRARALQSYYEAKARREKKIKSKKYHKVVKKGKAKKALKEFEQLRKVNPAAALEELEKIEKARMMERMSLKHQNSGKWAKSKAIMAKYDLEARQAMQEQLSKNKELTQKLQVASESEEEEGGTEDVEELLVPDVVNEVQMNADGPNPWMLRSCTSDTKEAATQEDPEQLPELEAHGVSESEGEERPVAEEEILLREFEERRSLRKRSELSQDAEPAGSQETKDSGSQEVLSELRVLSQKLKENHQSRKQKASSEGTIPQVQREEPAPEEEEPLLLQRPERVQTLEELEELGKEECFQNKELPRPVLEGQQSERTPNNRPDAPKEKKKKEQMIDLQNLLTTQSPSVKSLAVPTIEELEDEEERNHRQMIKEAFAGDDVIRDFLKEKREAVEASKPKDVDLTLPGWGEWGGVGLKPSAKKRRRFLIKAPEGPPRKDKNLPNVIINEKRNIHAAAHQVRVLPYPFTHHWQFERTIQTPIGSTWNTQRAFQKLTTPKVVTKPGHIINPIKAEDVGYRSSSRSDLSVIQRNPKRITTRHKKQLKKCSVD
Summary of the method: as §1

[9] = target: T9, UniProt Q96RF0-2
T9 sequence (whole entry): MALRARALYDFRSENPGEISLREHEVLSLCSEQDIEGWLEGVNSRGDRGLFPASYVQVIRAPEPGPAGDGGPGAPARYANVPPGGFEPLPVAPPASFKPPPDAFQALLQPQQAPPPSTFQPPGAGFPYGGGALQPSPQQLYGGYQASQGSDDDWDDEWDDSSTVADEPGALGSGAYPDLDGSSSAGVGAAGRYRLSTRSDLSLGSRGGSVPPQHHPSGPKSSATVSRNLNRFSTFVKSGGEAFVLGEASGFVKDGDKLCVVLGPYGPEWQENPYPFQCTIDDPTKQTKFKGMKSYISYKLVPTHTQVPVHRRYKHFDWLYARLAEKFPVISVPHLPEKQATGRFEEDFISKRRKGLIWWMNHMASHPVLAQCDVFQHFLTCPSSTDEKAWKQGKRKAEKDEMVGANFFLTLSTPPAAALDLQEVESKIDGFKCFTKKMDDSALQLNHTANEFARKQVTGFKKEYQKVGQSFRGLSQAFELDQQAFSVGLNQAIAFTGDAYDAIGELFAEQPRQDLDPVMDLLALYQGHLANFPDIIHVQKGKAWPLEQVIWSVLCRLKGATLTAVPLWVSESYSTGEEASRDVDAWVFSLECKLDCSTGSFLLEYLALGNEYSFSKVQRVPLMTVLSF
Summary of the method: as §1

In the case of `Nc1ncnc2c1ncn2[C@@H]1O[C@H](COP(=O)(O)OP(=O)(O)NP(=O)(O)O)[C@@H](O)[C@H]1O` [adenylyl imidodiphosphate], the NP40-soluble protein abundance ([1]; concentration: 2mM) is reported as 1 ± 0.021, the NP40-soluble protein abundance ([1]; concentration: 4mM) is reported as 0.983 ± 0.021 and the NP40-soluble protein abundance ([1]; concentration: 6mM) is reported as 0.99 ± 0.03. It also gave an NP40-soluble protein abundance ([1]; concentration: 8mM) of 1.01 ± 0.035, an NP40-soluble protein abundance ([1]; concentration: 10mM) of 0.9728 ± 0.0067 and an NP40-soluble protein abundance ([2]; concentration: 1mM) of 0.996 ± 0.016. The NP40-soluble protein abundance ([2]; concentration: 2mM) was 1.04 ± 0.053, the NP40-soluble protein abundance ([2]; concentration: 4mM) was 1.01 ± 0.012 and the NP40-soluble protein abundance ([2]; concentration: 6mM) was 1.05 ± 0.025. For the same compound, the NP40-soluble protein abundance ([2]; concentration: 8mM) was 1.005 ± 0.0076, the NP40-soluble protein abundance ([2]; concentration: 10mM) was 1.04 ± 0.032 and the NP40-soluble protein abundance ([3]; concentration: 1mM) was 1.02 ± 0.043. It also gave an NP40-soluble protein abundance ([3]; concentration: 2mM) of 1.01 ± 0.066, an NP40-soluble protein abundance ([3]; concentration: 4mM) of 1.06 ± 0.059 and an NP40-soluble protein abundance ([3]; concentration: 6mM) of 1.09 ± 0.042. For the same compound, the NP40-soluble protein abundance ([3]; concentration: 8mM) was 1.12 ± 0.064, the NP40-soluble protein abundance ([3]; concentration: 10mM) was 1.11 ± 0.073 and the NP40-soluble protein abundance ([4]; concentration: 1mM) was 0.928 ± 0.052. The NP40-soluble protein abundance ([4]; concentration: 2mM) was 0.843 ± 0.043, the NP40-soluble protein abundance ([4]; concentration: 4mM) was 0.887 ± 0.028 and the NP40-soluble protein abundance ([4]; concentration: 6mM) was 0.877 ± 0.04. The NP40-soluble protein abundance ([4]; concentration: 8mM) was 0.921 ± 0.054, the NP40-soluble protein abundance ([4]; concentration: 10mM) was 0.82 ± 0.064 and the NP40-soluble protein abundance ([5]; concentration: 1mM) was 0.93 ± 0.028. For the same compound, the NP40-soluble protein abundance ([5]; concentration: 2mM) was 0.923 ± 0.064, the NP40-soluble protein abundance ([5]; concentration: 4mM) was 0.961 ± 0.044 and the NP40-soluble protein abundance ([5]; concentration: 6mM) was 1.03 ± 0.072. It also gave an NP40-soluble protein abundance ([5]; concentration: 8mM) of 0.999 ± 0.026, an NP40-soluble protein abundance ([5]; concentration: 10mM) of 1 ± 0.064 and an NP40-soluble protein abundance ([6]; concentration: 1mM) of 1.02 ± 0.022. It also gave an NP40-soluble protein abundance ([6]; concentration: 2mM) of 1 ± 0.031, an NP40-soluble protein abundance ([6]; concentration: 4mM) of 0.983 ± 0.025 and an NP40-soluble protein abundance ([6]; concentration: 6mM) of 0.954 ± 0.028. It also gave an NP40-soluble protein abundance ([6]; concentration: 8mM) of 0.952 ± 0.028, an NP40-soluble protein abundance ([6]; concentration: 10mM) of 0.929 ± 0.022 and an NP40-soluble protein abundance ([7]; concentration: 1mM) of 1.03 ± 0.075. The NP40-soluble protein abundance ([7]; concentration: 2mM) was 0.984 ± 0.031, the NP40-soluble protein abundance ([7]; concentration: 4mM) was 1.01 ± 0.074 and the NP40-soluble protein abundance ([7]; concentration: 6mM) was 0.981 ± 0.031. For the same compound, the NP40-soluble protein abundance ([7]; concentration: 8mM) was 0.98 ± 0.055, the NP40-soluble protein abundance ([7]; concentration: 10mM) was 0.96 ± 0.045 and the NP40-soluble protein abundance ([8]; concentration: 1mM) was 1.07 ± 0.01. For the same compound, the NP40-soluble protein abundance ([8]; concentration: 2mM) was 1.12 ± 0.053, the NP40-soluble protein abundance ([8]; concentration: 4mM) was 1.17 ± 0.045 and the NP40-soluble protein abundance ([8]; concentration: 6mM) was 1.19 ± 0.021. The NP40-soluble protein abundance ([8]; concentration: 8mM) was 1.21 ± 0.033, the NP40-soluble protein abundance ([8]; concentration: 10mM) was 1.28 ± 0.031 and the NP40-soluble protein abundance ([9]; concentration: 1mM) was 1.0202 ± 0.00095. For the same compound, the NP40-soluble protein abundance ([9]; concentration: 2mM) was 1.013 ± 0.0022 and the NP40-soluble protein abundance ([9]; concentration: 4mM) was 1.01 ± 0.025.
